Entries after “also recorded” stand apart in the source; their conditions may differ. For at least one compound, name, drawing or mass did not settle the structure.
Tests used:
[1] = system: cell-surface ErbB3; experiment: Cell-surface expressed ErbB3 by binding of fluorescently-labeled 2C2-YTE or NRG; assay type: cell-based; details: HT29, A375, A2058, WM115; 100 nM trametinib or 1 μM vemurafenib, 24 hours, 37° C.
[2] = system: ErbB3; assay type: cell-based; details: HT29, A275, A2058, WM115; 24 hours; trametinib 10 or 100 nM, vemurafenib 100 to 1000 nM; ±10 nM NRG

## CCCS(=O)(=O)Nc1ccc(F)c(C(=O)c2c[nH]c3ncc(-c4ccc(Cl)cc4)cc23)c1F [vemurafenib]
[1]
  ErbB3 cell surface levels: increased; also recorded: upregulation of ErbB3 cell surface levels
[2]
  ErbB3 protein levels (total): increased; also recorded: upregulation of ErbB3 protein levels
